Earlier results in patent US8242165B2, “Mucoadhesive nanoparticles for cancer treatment” (Creighton University, priority 2006, dated 2012).

Settings: 1:1 mixture of Cremophor EL and ethanol

SMILES: CC(=O)O[C@H]1C(=O)[C@@]2(C)[C@H]([C@H](OC(=O)c3ccccc3)[C@]3(O)C[C@H](OC(=O)[C@H](O)[C@@H](NC(=O)c4ccccc4)c4ccccc4)C(C)=C1C3(C)C)[C@]1(OC(C)=O)CO[C@@H]1C[C@@H]2O [paclitaxel, Paclitaxel]
- solubility of paclitaxel in formulation: 7 mM
